Results reported in patent US20180185455A1 (OCTAPHARMA, published 2018).
Results are given in words; binding and its absence hold for the method and conditions named. Some results given as binding are weak or reduced against the parent protein; the word gives no strength.

Amino acid sequences for entries named in this document (tags omitted). A change or cut given only in a name is not applied to a line headed by its entry. Residues count along the entry.
UniProt P02461, residues 168-1196: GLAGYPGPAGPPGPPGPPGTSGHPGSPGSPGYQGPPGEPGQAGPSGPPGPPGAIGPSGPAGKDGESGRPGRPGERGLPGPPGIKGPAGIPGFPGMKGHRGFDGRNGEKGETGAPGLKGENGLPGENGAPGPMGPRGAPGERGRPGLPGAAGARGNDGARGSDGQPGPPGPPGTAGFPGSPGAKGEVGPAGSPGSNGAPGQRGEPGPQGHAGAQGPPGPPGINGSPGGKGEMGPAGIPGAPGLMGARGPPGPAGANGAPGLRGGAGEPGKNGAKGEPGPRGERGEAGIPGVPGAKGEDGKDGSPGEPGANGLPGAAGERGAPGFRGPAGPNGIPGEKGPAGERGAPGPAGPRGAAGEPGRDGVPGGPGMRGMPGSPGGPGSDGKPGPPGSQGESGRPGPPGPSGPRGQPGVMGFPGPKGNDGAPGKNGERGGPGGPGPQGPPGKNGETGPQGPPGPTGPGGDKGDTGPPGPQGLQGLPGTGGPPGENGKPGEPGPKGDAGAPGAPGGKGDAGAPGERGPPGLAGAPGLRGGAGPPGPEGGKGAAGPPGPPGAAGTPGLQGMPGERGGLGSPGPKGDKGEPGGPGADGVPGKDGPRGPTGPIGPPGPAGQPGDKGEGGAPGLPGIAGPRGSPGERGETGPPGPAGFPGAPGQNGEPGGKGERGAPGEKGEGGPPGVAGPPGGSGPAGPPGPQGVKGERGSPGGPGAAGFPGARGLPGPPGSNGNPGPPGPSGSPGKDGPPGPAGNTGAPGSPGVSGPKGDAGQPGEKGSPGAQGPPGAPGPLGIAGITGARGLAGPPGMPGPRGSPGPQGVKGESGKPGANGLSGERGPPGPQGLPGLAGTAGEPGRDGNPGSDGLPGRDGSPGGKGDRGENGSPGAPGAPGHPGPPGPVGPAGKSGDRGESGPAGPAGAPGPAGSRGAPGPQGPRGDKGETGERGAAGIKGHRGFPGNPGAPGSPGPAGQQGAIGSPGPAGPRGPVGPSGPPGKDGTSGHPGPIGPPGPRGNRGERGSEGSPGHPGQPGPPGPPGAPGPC
UniProt P04275: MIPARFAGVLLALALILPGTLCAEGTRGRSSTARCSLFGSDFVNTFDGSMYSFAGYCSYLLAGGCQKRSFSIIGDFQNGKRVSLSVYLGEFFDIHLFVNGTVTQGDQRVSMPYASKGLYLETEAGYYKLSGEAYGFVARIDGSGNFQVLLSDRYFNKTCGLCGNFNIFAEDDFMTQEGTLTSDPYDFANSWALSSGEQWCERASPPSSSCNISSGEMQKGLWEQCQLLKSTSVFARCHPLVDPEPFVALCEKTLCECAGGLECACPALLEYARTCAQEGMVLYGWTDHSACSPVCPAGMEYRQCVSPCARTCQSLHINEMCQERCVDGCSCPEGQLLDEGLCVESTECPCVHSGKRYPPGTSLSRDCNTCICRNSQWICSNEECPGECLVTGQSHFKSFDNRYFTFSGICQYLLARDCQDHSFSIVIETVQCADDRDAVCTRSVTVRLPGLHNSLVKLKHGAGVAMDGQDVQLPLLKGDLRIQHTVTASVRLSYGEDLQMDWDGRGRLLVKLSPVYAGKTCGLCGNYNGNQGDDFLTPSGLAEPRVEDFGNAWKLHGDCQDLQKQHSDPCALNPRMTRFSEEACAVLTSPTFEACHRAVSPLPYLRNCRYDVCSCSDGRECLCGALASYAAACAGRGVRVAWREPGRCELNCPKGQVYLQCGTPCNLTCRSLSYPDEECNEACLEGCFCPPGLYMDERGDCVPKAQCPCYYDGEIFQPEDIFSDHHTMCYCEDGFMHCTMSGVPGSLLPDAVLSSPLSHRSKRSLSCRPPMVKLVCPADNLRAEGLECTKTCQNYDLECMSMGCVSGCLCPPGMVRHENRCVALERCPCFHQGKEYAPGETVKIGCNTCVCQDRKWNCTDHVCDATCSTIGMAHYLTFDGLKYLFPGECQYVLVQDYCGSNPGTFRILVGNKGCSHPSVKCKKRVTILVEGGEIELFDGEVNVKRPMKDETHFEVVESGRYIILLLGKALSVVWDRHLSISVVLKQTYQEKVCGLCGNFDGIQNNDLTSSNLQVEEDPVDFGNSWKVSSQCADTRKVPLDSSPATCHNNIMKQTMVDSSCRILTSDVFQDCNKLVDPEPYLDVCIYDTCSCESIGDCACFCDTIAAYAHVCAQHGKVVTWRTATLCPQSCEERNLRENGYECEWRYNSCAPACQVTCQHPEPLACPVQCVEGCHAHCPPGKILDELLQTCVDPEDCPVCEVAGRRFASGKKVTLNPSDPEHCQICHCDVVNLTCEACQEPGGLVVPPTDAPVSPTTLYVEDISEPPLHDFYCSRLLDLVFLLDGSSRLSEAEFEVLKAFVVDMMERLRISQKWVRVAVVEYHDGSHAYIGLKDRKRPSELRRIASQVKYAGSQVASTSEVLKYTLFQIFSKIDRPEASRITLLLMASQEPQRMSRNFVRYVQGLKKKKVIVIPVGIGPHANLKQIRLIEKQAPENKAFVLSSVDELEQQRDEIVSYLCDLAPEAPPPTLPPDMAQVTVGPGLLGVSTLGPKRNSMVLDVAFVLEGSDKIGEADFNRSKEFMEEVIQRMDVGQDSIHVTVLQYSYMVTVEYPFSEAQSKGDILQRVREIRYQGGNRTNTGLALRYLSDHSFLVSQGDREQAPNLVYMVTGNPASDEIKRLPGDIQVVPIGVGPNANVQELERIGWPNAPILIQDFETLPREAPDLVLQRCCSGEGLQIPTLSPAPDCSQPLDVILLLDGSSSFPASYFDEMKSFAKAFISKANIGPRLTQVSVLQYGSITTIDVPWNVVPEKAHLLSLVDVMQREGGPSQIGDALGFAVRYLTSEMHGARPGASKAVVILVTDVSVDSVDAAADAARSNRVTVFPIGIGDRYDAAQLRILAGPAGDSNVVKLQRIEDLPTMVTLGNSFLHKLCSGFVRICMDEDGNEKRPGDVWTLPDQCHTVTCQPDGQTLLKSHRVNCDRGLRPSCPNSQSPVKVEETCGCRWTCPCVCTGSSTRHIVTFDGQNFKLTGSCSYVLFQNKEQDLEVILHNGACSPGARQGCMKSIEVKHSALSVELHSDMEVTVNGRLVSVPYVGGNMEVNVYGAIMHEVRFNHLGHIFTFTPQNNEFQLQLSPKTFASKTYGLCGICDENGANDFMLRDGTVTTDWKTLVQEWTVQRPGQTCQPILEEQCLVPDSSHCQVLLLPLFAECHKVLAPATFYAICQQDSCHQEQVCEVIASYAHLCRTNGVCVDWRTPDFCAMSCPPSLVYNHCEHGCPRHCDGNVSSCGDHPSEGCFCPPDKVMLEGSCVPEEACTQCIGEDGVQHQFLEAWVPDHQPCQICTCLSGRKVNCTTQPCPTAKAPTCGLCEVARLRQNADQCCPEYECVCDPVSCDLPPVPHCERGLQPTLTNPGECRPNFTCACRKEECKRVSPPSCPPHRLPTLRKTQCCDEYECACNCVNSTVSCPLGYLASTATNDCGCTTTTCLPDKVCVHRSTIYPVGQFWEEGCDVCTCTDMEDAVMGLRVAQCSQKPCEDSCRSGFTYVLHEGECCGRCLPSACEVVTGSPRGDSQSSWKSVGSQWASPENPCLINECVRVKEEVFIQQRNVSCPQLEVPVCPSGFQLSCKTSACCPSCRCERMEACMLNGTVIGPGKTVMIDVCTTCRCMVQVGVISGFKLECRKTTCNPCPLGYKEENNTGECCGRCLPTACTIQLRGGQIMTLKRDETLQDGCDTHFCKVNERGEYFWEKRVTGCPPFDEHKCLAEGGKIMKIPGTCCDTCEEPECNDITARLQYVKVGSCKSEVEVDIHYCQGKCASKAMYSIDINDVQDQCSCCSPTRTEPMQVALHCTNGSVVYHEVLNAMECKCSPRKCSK

Molecular target: human pepsin-digested collagen type III (human) (UniProt P02461)
Test: SPR, immobilized collagen type III

binding | Substance
binds | fragment III (SPIII, res. 764-2128) from plasma derived Von Willebrand Factor (from UniProt P04275 764-2128)
binds | plasma derived full length Von Willebrand Factor (from UniProt P04275 764-2813)
